Record: PubChem BioAssay AID1259281 (Sanger Institute, 2017)
Purpose: 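Find knock-downs that kill colorectal cancer cells alone or strengthen targeted drugs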 (primary screen). Cell system: human COLO678 colorectal cancer cell line. Reagents: siRNA pool against human genes. Treatment: anchor drugs at fixed doses: BYL719 1 µM, cetuximab 5 µg/ml or trametinib 10 nM; DMSO vehicle for the siRNA-alone arm. Read-out: 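Surviving cells scaled to non-targeting siRNA control as replicate means; robust z-score for knock-down alone; synergy scores weigh knock-down with drug against the predicted combined effect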. Reading the numbers: robust z-score, siRNA alone: higher = more viable cells; strongly negative means essential. Hit rule: 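Essential (knock-down alone) when the siRNA-alone robust z-score is below -3; otherwise no change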. Meaning of the calls: active = essential (knock-down alone); inactive = no change.
The deposit covers 794 reagents; below is an unselected part. In the full data, 22 (2.8%) are marked active. 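Calls rest on knock-down alone only; drug synergy scores play no part in them.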 A number with no mark means an inactive call. Not all columns of the deposit are shown. Reagent sequences are not shown. The record does not give: the amount of reagent, the time to read-out.

For ULK4 the deposit lists robust z-score, siRNA alone -0.0328.
Knock-down of PANK3 gave: robust z-score, siRNA alone 0.473.
GK2 showed robust z-score, siRNA alone 0.473.
With knock-down of ALPK2, the record shows robust z-score, siRNA alone -1.78.
Depletion of RBKS resulted in: robust z-score, siRNA alone 0.473.
PASK scored robust z-score, siRNA alone 0.197.
Against AKT2 the deposit lists robust z-score, siRNA alone 0.473.
Against PIK3C2G the deposit lists robust z-score, siRNA alone -6.69 (active).
SRPK2 scored robust z-score, siRNA alone 0.473.
ACVR2A scored robust z-score, siRNA alone 0.473.
With knock-down of BUB1 the results were robust z-score, siRNA alone -1.86.
After knock-down of PCK1, the record shows robust z-score, siRNA alone -0.301.
SGK2 gave robust z-score, siRNA alone -0.326.
MED24 scored robust z-score, siRNA alone -0.384.
After knock-down of SGK3 the results were robust z-score, siRNA alone 0.473.
CKS1B scored robust z-score, siRNA alone 0.473.
For TEK, the entry reads robust z-score, siRNA alone 0.473.
STK38L gave robust z-score, siRNA alone 0.473.
MAP3K8 gave robust z-score, siRNA alone -4.02 (active).
Knock-down of PEAK1 came out at: robust z-score, siRNA alone 0.473.
Silencing of TAOK1 gave: robust z-score, siRNA alone -0.58.
Knock-down of NTRK1 gave: robust z-score, siRNA alone 0.473.
Silencing of BRDT came out at: robust z-score, siRNA alone 0.473.
Depletion of RPS6KA5 resulted in: robust z-score, siRNA alone -1.31.
WIPF1 gave robust z-score, siRNA alone 0.473.
Against RPS6KC1, the values are robust z-score, siRNA alone 0.473.
NAGK gave robust z-score, siRNA alone 0.473.
PRKAA2 scored robust z-score, siRNA alone 0.473.

A run of entries of the results above:
SRPK2 | robust z-score, siRNA alone: 0.473
ACVR2A | robust z-score, siRNA alone: 0.473
